# Results as given in publication PMC5472812.
# The chains behind the UniProt entries cited, without tags or fusion partners. Where a name states a change or a piece, a line headed by the entry shows the natural chain unless it says otherwise.
# UniProt Q9A749: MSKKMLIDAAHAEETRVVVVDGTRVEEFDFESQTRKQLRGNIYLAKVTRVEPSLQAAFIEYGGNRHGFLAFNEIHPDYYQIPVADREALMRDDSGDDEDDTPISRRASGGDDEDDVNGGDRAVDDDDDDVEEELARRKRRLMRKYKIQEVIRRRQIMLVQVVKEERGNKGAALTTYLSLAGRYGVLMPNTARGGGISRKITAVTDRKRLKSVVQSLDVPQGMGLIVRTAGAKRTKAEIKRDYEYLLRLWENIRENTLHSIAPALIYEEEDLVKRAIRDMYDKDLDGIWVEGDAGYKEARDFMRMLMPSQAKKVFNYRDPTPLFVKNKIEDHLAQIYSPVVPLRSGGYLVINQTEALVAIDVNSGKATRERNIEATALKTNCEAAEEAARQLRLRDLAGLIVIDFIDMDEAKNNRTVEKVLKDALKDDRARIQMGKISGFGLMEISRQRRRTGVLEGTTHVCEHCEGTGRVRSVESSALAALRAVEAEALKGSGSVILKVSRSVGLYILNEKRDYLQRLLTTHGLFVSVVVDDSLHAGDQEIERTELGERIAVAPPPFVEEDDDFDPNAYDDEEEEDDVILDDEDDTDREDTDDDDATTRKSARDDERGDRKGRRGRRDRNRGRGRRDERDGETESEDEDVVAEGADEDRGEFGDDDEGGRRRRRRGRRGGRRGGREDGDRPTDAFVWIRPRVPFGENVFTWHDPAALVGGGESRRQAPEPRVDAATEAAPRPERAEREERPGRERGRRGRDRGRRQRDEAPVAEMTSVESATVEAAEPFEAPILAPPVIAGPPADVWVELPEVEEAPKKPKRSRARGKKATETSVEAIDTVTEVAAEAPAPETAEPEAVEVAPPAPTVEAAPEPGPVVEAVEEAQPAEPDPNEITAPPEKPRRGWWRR
# UniProt A0A0H3C4B5: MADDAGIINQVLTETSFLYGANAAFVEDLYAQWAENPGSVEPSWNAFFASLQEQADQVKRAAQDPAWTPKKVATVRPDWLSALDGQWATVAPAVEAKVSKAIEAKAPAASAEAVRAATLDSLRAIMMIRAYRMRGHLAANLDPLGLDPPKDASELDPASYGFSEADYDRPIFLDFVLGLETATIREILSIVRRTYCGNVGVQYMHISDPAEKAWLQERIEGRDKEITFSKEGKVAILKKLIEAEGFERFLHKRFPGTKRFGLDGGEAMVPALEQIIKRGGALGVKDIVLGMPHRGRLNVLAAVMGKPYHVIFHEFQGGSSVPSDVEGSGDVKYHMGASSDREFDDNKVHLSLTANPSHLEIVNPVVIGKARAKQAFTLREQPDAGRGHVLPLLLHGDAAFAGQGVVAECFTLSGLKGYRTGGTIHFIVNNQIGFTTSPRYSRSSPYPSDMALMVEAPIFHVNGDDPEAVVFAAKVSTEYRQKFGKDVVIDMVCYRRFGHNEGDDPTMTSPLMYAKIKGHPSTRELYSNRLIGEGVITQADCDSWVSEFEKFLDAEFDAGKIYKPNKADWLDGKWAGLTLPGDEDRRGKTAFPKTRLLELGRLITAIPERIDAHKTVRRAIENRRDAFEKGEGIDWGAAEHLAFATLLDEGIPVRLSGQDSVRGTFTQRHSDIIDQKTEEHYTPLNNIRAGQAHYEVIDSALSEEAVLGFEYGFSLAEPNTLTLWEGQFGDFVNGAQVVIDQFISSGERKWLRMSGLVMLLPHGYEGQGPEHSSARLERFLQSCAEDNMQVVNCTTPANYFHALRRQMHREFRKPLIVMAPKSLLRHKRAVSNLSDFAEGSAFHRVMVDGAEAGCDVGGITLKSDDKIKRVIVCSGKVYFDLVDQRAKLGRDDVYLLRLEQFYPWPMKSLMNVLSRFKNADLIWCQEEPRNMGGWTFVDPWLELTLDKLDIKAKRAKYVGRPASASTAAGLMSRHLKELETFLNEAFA
# UniProt A0A0H3C896: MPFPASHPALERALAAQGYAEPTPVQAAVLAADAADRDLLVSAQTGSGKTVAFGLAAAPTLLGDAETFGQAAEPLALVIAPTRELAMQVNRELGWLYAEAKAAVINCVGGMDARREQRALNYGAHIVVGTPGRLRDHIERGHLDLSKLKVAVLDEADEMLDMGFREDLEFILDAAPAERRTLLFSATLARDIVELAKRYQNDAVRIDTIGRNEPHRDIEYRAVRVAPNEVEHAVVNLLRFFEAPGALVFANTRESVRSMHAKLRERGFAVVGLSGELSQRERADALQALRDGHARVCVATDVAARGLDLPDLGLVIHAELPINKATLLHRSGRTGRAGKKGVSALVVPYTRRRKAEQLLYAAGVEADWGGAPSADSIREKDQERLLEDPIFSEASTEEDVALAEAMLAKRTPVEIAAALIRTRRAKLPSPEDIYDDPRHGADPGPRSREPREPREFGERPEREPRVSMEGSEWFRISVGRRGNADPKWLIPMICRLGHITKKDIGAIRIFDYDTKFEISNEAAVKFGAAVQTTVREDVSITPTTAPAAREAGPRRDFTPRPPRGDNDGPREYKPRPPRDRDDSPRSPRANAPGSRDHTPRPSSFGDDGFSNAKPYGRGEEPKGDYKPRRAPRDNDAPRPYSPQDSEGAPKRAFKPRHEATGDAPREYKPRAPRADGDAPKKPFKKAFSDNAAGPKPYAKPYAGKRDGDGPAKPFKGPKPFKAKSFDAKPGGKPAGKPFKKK
# UniProt A0A0H3CAA2: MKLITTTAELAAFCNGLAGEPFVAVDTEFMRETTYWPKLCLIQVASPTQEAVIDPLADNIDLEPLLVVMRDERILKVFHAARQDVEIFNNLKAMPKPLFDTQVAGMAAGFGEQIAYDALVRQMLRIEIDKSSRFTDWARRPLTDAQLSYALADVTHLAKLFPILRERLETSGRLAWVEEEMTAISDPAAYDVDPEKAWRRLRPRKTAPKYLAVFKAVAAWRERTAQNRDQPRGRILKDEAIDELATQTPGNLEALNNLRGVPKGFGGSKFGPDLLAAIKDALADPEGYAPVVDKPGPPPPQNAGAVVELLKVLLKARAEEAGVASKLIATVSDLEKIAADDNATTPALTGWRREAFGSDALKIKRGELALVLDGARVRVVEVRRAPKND
# UniProt A0A0H3C629: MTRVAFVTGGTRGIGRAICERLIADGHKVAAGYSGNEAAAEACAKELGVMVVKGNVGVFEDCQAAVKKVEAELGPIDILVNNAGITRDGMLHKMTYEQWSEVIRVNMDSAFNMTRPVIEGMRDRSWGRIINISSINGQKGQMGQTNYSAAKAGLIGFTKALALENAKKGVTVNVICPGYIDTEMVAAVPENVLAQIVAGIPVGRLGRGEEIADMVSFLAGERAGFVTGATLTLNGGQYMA
# UniProt A0A0H3C5U2: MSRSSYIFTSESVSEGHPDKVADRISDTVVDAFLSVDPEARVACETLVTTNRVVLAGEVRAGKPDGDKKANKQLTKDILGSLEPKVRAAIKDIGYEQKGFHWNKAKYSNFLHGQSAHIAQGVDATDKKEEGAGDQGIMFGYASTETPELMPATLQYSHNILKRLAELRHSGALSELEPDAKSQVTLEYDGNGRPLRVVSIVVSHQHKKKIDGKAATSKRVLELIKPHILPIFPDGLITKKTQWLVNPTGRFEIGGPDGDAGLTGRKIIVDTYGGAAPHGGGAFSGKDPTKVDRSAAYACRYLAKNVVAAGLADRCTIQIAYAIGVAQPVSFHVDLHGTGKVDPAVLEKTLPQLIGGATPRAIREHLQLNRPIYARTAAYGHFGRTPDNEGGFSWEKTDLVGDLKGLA
# UniProt A0A0H3CCW5: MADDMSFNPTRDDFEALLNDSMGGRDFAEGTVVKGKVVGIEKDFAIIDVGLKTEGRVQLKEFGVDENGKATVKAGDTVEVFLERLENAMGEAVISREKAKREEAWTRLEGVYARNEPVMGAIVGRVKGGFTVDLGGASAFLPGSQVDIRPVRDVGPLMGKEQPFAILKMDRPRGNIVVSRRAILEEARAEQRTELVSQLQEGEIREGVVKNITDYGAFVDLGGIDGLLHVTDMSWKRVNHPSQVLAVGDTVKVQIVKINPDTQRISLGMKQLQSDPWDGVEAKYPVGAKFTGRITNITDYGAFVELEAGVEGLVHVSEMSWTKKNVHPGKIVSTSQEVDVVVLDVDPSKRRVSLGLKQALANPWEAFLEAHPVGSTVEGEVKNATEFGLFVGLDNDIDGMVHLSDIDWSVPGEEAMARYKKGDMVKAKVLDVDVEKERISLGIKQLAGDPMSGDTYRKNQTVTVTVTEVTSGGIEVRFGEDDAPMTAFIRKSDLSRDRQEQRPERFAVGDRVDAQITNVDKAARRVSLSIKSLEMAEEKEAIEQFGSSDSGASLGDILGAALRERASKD
# UniProt A0A0H3CG88: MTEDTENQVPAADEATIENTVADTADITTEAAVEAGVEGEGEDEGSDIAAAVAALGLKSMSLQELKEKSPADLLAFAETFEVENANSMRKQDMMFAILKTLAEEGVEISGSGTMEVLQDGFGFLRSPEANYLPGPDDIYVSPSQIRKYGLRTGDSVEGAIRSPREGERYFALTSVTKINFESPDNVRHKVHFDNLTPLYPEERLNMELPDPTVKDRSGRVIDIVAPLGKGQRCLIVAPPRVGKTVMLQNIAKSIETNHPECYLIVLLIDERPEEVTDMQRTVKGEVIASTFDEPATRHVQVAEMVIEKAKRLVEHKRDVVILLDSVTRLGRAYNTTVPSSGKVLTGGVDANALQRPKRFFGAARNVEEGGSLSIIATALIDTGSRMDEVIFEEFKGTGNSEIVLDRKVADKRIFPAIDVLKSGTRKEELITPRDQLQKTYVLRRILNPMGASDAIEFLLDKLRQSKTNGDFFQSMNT
# UniProt A0A0H3C8I9: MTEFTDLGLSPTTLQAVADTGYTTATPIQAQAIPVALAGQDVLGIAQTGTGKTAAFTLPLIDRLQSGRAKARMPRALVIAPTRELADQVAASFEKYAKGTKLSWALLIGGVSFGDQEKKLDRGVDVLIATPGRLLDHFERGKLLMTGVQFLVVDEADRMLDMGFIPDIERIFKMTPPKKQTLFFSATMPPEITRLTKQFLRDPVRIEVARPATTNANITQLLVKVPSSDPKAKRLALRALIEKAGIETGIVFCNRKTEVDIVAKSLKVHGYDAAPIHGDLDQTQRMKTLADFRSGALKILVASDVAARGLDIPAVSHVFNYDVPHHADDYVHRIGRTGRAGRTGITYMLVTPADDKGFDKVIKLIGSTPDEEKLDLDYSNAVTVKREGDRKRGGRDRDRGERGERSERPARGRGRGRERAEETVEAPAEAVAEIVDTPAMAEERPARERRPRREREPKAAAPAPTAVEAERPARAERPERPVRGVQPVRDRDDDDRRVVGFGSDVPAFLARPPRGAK
# Results are given in words; binding and its absence hold for the method and conditions named. In cells and extracts the contact can be indirect. Here binding means that the protein was enriched with, or labelled near, the bait; the list need not be complete.
# Molecular target: FLAG-tagged RNase E (Caulobacter crescentus NA1000) (UniProt Q9A749)
# Experiment: affinity purification with mass spectrometry; FLAG-RNase E captured from clarified C. crescentus lysate on anti-FLAG M2 affinity gel (2 h, 4°C; 20 mM Tris-HCl pH 7.5, 250 mM NaCl, 5 mM EDTA), eluted with FLAG peptide, SDS-PAGE, bands identified by MALDI fingerprinting; cells grown at 30°C or 15°C; wild type or ΔrhlB; 15°C extracts also pretreated with RNase A
row,Substance,binding
1,2-oxoglutarate dehydrogenase E1 component (CCNA_00342) (from UniProt A0A0H3C4B5) (enzyme),binds
2,DEAD-box RNA helicase CCNA_01546 (from UniProt A0A0H3C896) (enzyme),binds
3,RNase D (from UniProt A0A0H3CAA2) (enzyme),binds
4,acetoacetyl coenzyme A (acetoacetyl-CoA) reductase (CCNA_00545) (from UniProt A0A0H3C629),binds
5,methionine adenosyltransferase (CCNA_00048) (from UniProt A0A0H3C5U2) (enzyme),binds
6,small subunit ribosomal protein S1 (CCNA_03702) (from UniProt A0A0H3CCW5),binds
7,transcription terminator Rho (CCNA_03876) (from UniProt A0A0H3CG88) (enzyme),binds

# Molecular target: FLAG-tagged RhlE (Caulobacter crescentus NA1000)
# Experiment: affinity purification with mass spectrometry; FLAG-RhlE captured from clarified C. crescentus MM84 lysate on anti-FLAG M2 affinity gel (2 h, 4°C; 20 mM Tris-HCl pH 7.5, 250 mM NaCl, 5 mM EDTA), eluted with FLAG peptide, SDS-PAGE, bands identified by MALDI fingerprinting; cells grown at 30°C or 15°C
row,Substance,binding
1,DEAD-box RNA helicase RhlB (from UniProt A0A0H3C8I9) (enzyme),binds
2,RNase E (from UniProt Q9A749) (enzyme),binds
3,methionine adenosyltransferase (CCNA_00048) (from UniProt A0A0H3C5U2) (enzyme),binds
